Results reported in article PMC8742353.
Results are given in words; binding and its absence hold for the method and conditions named. Binding seen in cells or lysates may run through a third protein. Some binding calls cover weakened binding; strength is not graded here.

By UniProt entry, the sequences of proteins in these tests, tags left out.
UniProt P25490: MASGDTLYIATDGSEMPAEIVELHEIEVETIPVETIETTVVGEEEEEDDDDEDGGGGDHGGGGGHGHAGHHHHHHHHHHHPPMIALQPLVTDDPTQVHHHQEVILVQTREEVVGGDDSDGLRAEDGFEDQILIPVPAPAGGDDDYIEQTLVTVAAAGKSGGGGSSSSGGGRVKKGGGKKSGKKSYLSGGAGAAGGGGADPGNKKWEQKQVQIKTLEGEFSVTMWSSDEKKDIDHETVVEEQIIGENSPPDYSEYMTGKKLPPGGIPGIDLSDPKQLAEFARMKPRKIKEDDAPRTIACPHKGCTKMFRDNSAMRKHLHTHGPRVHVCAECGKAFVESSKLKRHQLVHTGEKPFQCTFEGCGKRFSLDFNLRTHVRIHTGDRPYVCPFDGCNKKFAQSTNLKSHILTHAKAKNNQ

Target: Yin-Yang 1 (human (endogenous in HCC cells)) (UniProt P25490)
Test: co-IP; endogenous proteins in HCC cells; normal rabbit IgG and anti-YY1 antibodies used (told under the ChIP heading of the methods); no further conditions given

binding: binds
B1: G-rich sequence binding factor 1 (protein, UniProt Q12849 118-480)
chain: SQESKTTYLEDLPPPPEYELAPSKLEEEVDDVFLIRAQGLPWSCTMEDVLNFFSDCRIRNGENGIHFLLNRDGKRRGDALIEMESEQDVQKALEKHRMYMGQRYVEVYEINNEDVDALMKSLQVKSSPVVNDGVVRLRGLPYSCNEKDIVDFFAGLNIVDITFVMDYRGRRKTGEAYVQFEEPEMANQALLKHREEIGNRYIEIFPSRRNEVRTHVGSYKGKKIASFPTAKYITEPEMVFEEHEVNEDIQPMTAFESEKEIELPKEVPEKLPEAADFGTTSSLHFVHMRGLPFQANAQDIINFFAPLKPVRITMEYSSSGKATGEADVHFETHEDAVAAMLKDRSHVHHRYIELFLNSCPKGK
